Test results from article PMC11172336, “Exploring Syndecan-4 and MLP and Their Interaction in Primary Cardiomyocytes and H9c2 Cells” (Cells, 2024).
Results are given in words; binding and its absence hold for the method and conditions named. Some entries that bind do so weakly or less than the wild type.

B1: MLP, endogenous in H9c2 cells (protein, UniProt P50463 1-194)
chain: MPNWGGGAKCGACDKTVYHAEEIQCNGRSFHKTCFHCMACRKALDSTTVAAHESEIYCKVCYGRKYGPKGIGFGQGAGCLSTDTGEHLGLQFQQSPKPARAATTSNPSKFSAKFGESEKCPRCGKSVYAAEKVMGGGKPWHKTCFPCAICGKSLESTNVTDKDGELYCKVCYAKNFGPTGIGFGGLTHQVEKKE
B2: biotinylated MLP-WT peptide aa 100-129 (peptide, UniProt P50461 100-129)
peptide: RSVTTSNPSKFTAKFGESEKCPRCGKSVYA
modifications: N-terminal biotin tag
B3: biotinylated MLP-WT peptide aa 165-194 (peptide, UniProt P50461 165-194)
peptide: ELYCKVCYAKNFGPTGIGFGGLTQQVEKKE
modifications: N-terminal biotin tag

Tests used:
[1] = target: MLP, endogenous in H9c2 cells (rat (endogenous in H9c2)) (UniProt P50463); experiment: immunoblotting under native conditions; total lysates of H9c2 cells with or without retinoic acid and isoprenaline, native sample buffer, not boiled, SDS-containing running buffer; blot for MLP
[2] = target: recombinant 6xHis-MLP-WT (human) (UniProt P50461); experiment: ELISA; wells coated with 10 µg of WT or mutated full-length 6xHis-MLP recombinant protein in PBS; biotinylated overlapping MLP-WT 30-mer peptides at 2–5 µM for two hours at 37 °C; signal of PBS-coated wells subtracted; both purified

| Binder | binding [1] | binding [2] |
| --- | --- | --- |
| B1 | binds |  |
| B2 |  | binds weakly |
| B3 |  | binds weakly |
